Data published in the supplement of paper PMC4604168 (melanoma cell lines).
The list shows a part of the results. Many values rest on one well or one pass, so single values are uncertain.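 The apoptosis fraction was the count of cleaved-PARP antibody-stained nuclei relative to all DNA-stained nuclei, imaged in 1,536-well plates. Screening doses were set so most cells survived, and baseline and induced cleaved-PARP levels vary greatly across cell lines.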

What was measured:
Assay in all cases: cleaved PARP positive nuclei fraction relative to DMSO control; melanoma cells; higher = more apoptosis
Conditions in all cases: library dose: low library concentration; 72 h
MZ2-MEL = tested on: MZ2-MEL
MeWo = tested on: MeWo
RPMI7951 = tested on: RPMI7951
RVH-421 = tested on: RVH-421
SkMel28 = tested on: SkMel28
SkMel30 = tested on: SkMel30
SkMel5 = tested on: SkMel5
UACC257 = tested on: UACC257
UACC62 = tested on: UACC62
WM115 = tested on: WM115
WM1716 = tested on: WM1716
WM1745 = tested on: WM1745
WM3526 = tested on: WM3526
WM3619 = tested on: WM3619
WM451Lu = tested on: WM451Lu
SkMel2 = tested on: SkMel2

| SMILES | cleaved PARP positive nuclei fraction (MZ2-MEL) [%] | cleaved PARP positive nuclei fraction (MeWo) [%] | cleaved PARP positive nuclei fraction (RPMI7951) [%] | cleaved PARP positive nuclei fraction (RVH-421) [%] | cleaved PARP positive nuclei fraction (SkMel28) [%] | cleaved PARP positive nuclei fraction (SkMel30) [%] | cleaved PARP positive nuclei fraction (SkMel5) [%] | cleaved PARP positive nuclei fraction (UACC257) [%] | cleaved PARP positive nuclei fraction (UACC62) [%] | cleaved PARP positive nuclei fraction (WM115) [%] | cleaved PARP positive nuclei fraction (WM1716) [%] | cleaved PARP positive nuclei fraction (WM1745) [%] | cleaved PARP positive nuclei fraction (WM3526) [%] | cleaved PARP positive nuclei fraction (WM3619) [%] | cleaved PARP positive nuclei fraction (WM451Lu) [%] | cleaved PARP positive nuclei fraction (SkMel2) [%] |
| --- | --- | --- | --- | --- | --- | --- | --- | --- | --- | --- | --- | --- | --- | --- | --- | --- |
| COc1cc([C@@H]2c3cc4c(cc3[C@@H](O[C@@H]3O[C@@H]5CO[C@@H](C)O[C@H]5[C@H](O)[C@H]3O)[C@H]3COC(=O)[C@H]23)OCO4)cc(OC)c1O [etoposide] + Oc1nc(-c2ccc(C(F)(F)F)cc2)nc2c1CSCC2 [XAV939] (first compound 0.02 µM, partner dose 2 µM) | 56.6 | 53.5 | 37.5 | 73.1 | 51.6 | 104 | 159 | 51 | 69.1 | 37.5 | 111 | 92.4 | 54.9 | 95.1 | 70.8 | – |
| Cc1cc(Nc2cc(N3CCN(C)CC3)nc(Sc3ccc(NC(=O)C4CC4)cc3)n2)n[nH]1 [Tozasertib] + Cn1c(Nc2ccc(C(F)(F)F)cc2)nc2cc(Oc3ccnc(-c4ncc(C(F)(F)F)[nH]4)c3)ccc21 [CHIR265] (first compound 0.006 µM, partner dose 0.08 µM) | 89.5 | 226 | 283 | 105 | 85.6 | 235 | – | – | 626 | 757 | 84.5 | 162 | 134 | 145 | 57.6 | 74.7 |
| COc1cc([C@@H]2c3cc4c(cc3[C@@H](O[C@@H]3O[C@@H]5CO[C@@H](C)O[C@H]5[C@H](O)[C@H]3O)[C@H]3COC(=O)[C@H]23)OCO4)cc(OC)c1O [etoposide] + CCCCCCCCCCCCCCCCCCOP(=O)([O-])OC1CC[N+](C)(C)CC1 [Perifosine] (first compound 0.02 µM, partner dose 0.4 µM) | 89.3 | 55.8 | 94.6 | 137 | 87.2 | 34.1 | – | – | 111 | 106 | 72.3 | 79 | 67.9 | – | 33 | 143 |
| COc1cc([C@@H]2c3cc4c(cc3[C@@H](O[C@@H]3O[C@@H]5CO[C@@H](C)O[C@H]5[C@H](O)[C@H]3O)[C@H]3COC(=O)[C@H]23)OCO4)cc(OC)c1O [etoposide] + Cn1cncc1[C@@](N)(c1ccc(Cl)cc1)c1ccc2c(c1)c(-c1cccc(Cl)c1)cc(=O)n2C [tipifarnib] (first compound 0.02 µM, partner dose 0.01 µM) | 59.3 | 220 | 126 | 86.4 | 83.6 | 76.7 | 46 | 81.6 | 115 | 72.5 | 85.2 | 96 | 223 | 100 | 90.5 | – |
| COc1cc([C@@H]2c3cc4c(cc3[C@@H](O[C@@H]3O[C@@H]5CO[C@@H](C)O[C@H]5[C@H](O)[C@H]3O)[C@H]3COC(=O)[C@H]23)OCO4)cc(OC)c1O [etoposide] + O=c1[nH]nc(Sc2ncc([N+](=O)[O-])s2)n1-c1ccc2c(c1)OCCO2 [BI78D3] (first compound 0.02 µM, partner dose 0.2 µM) | 104 | 71.4 | 164 | 45.7 | 200 | 67.8 | – | – | 126 | 185 | 99.5 | 109 | 89.7 | 106 | 253 | 156 |
| CC[C@]1(O)C[C@H]2CN(CCc3c([nH]c4ccccc34)[C@@](C(=O)OC)(c3cc4c(cc3OC)N(C=O)[C@H]3[C@@](O)(C(=O)OC)[C@H](OC(C)=O)[C@]5(CC)C=CCN6CC[C@]43[C@@H]65)C2)C1 [vincristine] + COc1cc([C@@H]2c3cc4c(cc3[C@@H](O[C@@H]3O[C@@H]5CO[C@@H](C)O[C@H]5[C@H](O)[C@H]3O)[C@H]3COC(=O)[C@H]23)OCO4)cc(OC)c1O [etoposide] (first compound 0.0001 µM, partner dose 0.02 µM) | 146 | 42.5 | 116 | 80.1 | 337 | 336 | – | – | 363 | 868 | 76 | 120 | 83.8 | 138 | 173 | 228 |
| CC[C@]1(O)C[C@H]2CN(CCc3c([nH]c4ccccc34)[C@@](C(=O)OC)(c3cc4c(cc3OC)N(C=O)[C@H]3[C@@](O)(C(=O)OC)[C@H](OC(C)=O)[C@]5(CC)C=CCN6CC[C@]43[C@@H]65)C2)C1 [vincristine] + O=C(O)c1ccc2c(c1)nc(Nc1cccc(Cl)c1)c1ccncc12 [CX4945] (first compound 0.0001 µM, partner dose 0.4 µM) | 41.6 | 117 | 120 | 79.9 | 86.5 | 261 | – | – | 453 | 947 | 333 | 85 | 96.3 | 231 | 67.2 | 146 |
| CCCCCCCCCCCCCCCCCCOP(=O)([O-])OC1CC[N+](C)(C)CC1 [Perifosine] + O=C(O)[C@@H]1[O][Sb](=[O])([O][Sb]2(=[O])[O][C@H]([C@H](O)CO)[C@H](O)[C@H](C(=O)O)[O]2)[O][C@H]([C@H](O)CO)[C@@H]1O [stibogluconate] (first compound 0.4 µM, partner dose 2 µM) | 120 | 41.9 | 108 | 70.9 | 180 | 123 | – | – | 115 | 175 | 69.2 | 97.4 | 183 | 92.5 | 165 | 82.2 |
| N#CC[C@H](C1CCCC1)n1cc(-c2ncnc3[nH]ccc23)cn1 [ruxolitinib] + Cn1cnc2c(F)c(Nc3ccc(Br)cc3Cl)c(C(=O)NOCCO)cc21 [selumetinib] (first compound 1 µM, partner dose 0.015 µM) | 228 | 155 | 88 | 164 | 66.5 | 40.8 | – | – | 90.4 | 13 | 204 | 100 | 51.3 | 103 | 81.1 | 119 |
| Cc1ccc(Nc2nccc(N(C)c3ccc4c(C)n(C)nc4c3)n2)cc1S(N)(=O)=O [Pazopanib] + CN1CCN(c2ccc3nc(-c4c(N)c5c(F)cccc5[nH]c4=O)[nH]c3c2)CC1 [Dovitinib] (first compound 0.4 µM, partner dose 0.1 µM) | 159 | 52.4 | 57.8 | 73.5 | 50.4 | 52.4 | – | – | 183 | 81.2 | 69.3 | 107 | 45.3 | 215 | 67.8 | 70.5 |
| O=C(/C=C/c1cccnc1)NCCCCC1CCN(C(=O)c2ccccc2)CC1 + CC1(C)CCC(c2ccc(Cl)cc2)=C(CN2CCN(c3ccc(C(=O)NS(=O)(=O)c4ccc(N[C@H](CCN5CCOCC5)CSc5ccccc5)c(S(=O)(=O)C(F)(F)F)c4)cc3)CC2)C1 [ABT263] (first compound 0.01 µM, partner dose 0.4 µM) | 1210 | 406 | 72.3 | 210 | 78.9 | 231 | – | – | 62.2 | 449 | 200 | 515 | 64.8 | 185 | 496 | 2700 |
| CC[C@]1(O)C[C@H]2CN(CCc3c([nH]c4ccccc34)[C@@](C(=O)OC)(c3cc4c(cc3OC)N(C=O)[C@H]3[C@@](O)(C(=O)OC)[C@H](OC(C)=O)[C@]5(CC)C=CCN6CC[C@]43[C@@H]65)C2)C1 [vincristine] + COc1ccc(C2=N[C@@H](c3ccc(Cl)cc3)[C@@H](c3ccc(Cl)cc3)N2C(=O)N2CCNC(=O)C2)c(OC(C)C)c1 [Nutlin-3] (first compound 0.0001 µM, partner dose 0.1 µM) | 93.6 | 219 | 119 | 133 | 113 | 143 | – | – | 74.9 | 1950 | 181 | 135 | 69.5 | 209 | 166 | 146 |
| CC[C@]1(O)C[C@H]2CN(CCc3c([nH]c4ccccc34)[C@@](C(=O)OC)(c3cc4c(cc3OC)N(C=O)[C@H]3[C@@](O)(C(=O)OC)[C@H](OC(C)=O)[C@]5(CC)C=CCN6CC[C@]43[C@@H]65)C2)C1 [vincristine] + C=CCNC1=C2C[C@@H](C)C[C@H](OC)[C@H](O)[C@@H](C)/C=C(\C)[C@H](OC(N)=O)[C@@H](OC)/C=C\C=C(/C)C(=O)NC(=CC1=O)C2=O [Tanespimycin] (first compound 0.0001 µM, partner dose 0.002 µM) | 135 | 195 | 46 | 131 | 81.2 | 148 | – | – | 242 | 637 | 178 | 104 | 82.9 | 211 | 83.3 | 62.8 |
| Cc1ccc(Nc2nccc(N(C)c3ccc4c(C)n(C)nc4c3)n2)cc1S(N)(=O)=O [Pazopanib] + C[C@]1(c2nc3c(C(N)=O)cccc3[nH]2)CCCN1 [Veliparib] (first compound 0.4 µM, partner dose 1.4 µM) | 54 | 134 | 63.2 | 163 | 102 | 97.7 | – | – | 222 | 91.8 | 278 | 89.5 | 315 | 80.7 | 65 | 26.3 |
| O=c1[nH]nc(Sc2ncc([N+](=O)[O-])s2)n1-c1ccc2c(c1)OCCO2 + COc1ccc(C2=N[C@@H](c3ccc(Cl)cc3)[C@@H](c3ccc(Cl)cc3)N2C(=O)N2CCNC(=O)C2)c(OC(C)C)c1 [Nutlin-3] (first compound 0.2 µM, partner dose 0.1 µM) | 43.8 | 52.9 | 35.7 | 94.5 | 80.4 | 150 | – | – | 59.3 | 117 | 64.7 | 114 | 39.3 | 80 | 28.4 | 36.1 |
| CCCCCCCCCCCCCCCCCCOP(=O)([O-])OC1CC[N+](C)(C)CC1 [Perifosine] + CS(=O)(=O)CCNCc1ccc(-c2ccc3ncnc(Nc4ccc(OCc5cccc(F)c5)c(Cl)c4)c3c2)o1 [lapatinib] (first compound 0.4 µM, partner dose 0.8 µM) | 97 | 93.5 | 69.9 | 53.7 | 38.2 | 70 | – | – | 105 | 136 | 176 | 105 | 32 | 91.1 | 95.1 | 30.8 |
| COc1cc([C@@H]2c3cc4c(cc3[C@@H](O[C@@H]3O[C@@H]5CO[C@@H](C)O[C@H]5[C@H](O)[C@H]3O)[C@H]3COC(=O)[C@H]23)OCO4)cc(OC)c1O [etoposide] + COC(=O)c1sccc1S(=O)(=O)Nc1ccc(Nc2ccccc2)cc1OC [GSK0660] (first compound 0.02 µM, partner dose 1 µM) | – | 91.9 | 60.9 | 69.7 | 110 | 51.4 | 78.2 | 193 | – | 147 | 146 | 82.5 | 75.8 | 99.8 | 34.9 | 61.1 |

A run of entries from the list above:

| SMILES | cleaved PARP positive nuclei fraction (MZ2-MEL) [%] | cleaved PARP positive nuclei fraction (MeWo) [%] | cleaved PARP positive nuclei fraction (RPMI7951) [%] | cleaved PARP positive nuclei fraction (RVH-421) [%] | cleaved PARP positive nuclei fraction (SkMel28) [%] | cleaved PARP positive nuclei fraction (SkMel30) [%] | cleaved PARP positive nuclei fraction (SkMel5) [%] | cleaved PARP positive nuclei fraction (UACC257) [%] | cleaved PARP positive nuclei fraction (UACC62) [%] | cleaved PARP positive nuclei fraction (WM115) [%] | cleaved PARP positive nuclei fraction (WM1716) [%] | cleaved PARP positive nuclei fraction (WM1745) [%] | cleaved PARP positive nuclei fraction (WM3526) [%] | cleaved PARP positive nuclei fraction (WM3619) [%] | cleaved PARP positive nuclei fraction (WM451Lu) [%] | cleaved PARP positive nuclei fraction (SkMel2) [%] |
| --- | --- | --- | --- | --- | --- | --- | --- | --- | --- | --- | --- | --- | --- | --- | --- | --- |
| CCCCCCCCCCCCCCCCCCOP(=O)([O-])OC1CC[N+](C)(C)CC1 [Perifosine] + CS(=O)(=O)CCNCc1ccc(-c2ccc3ncnc(Nc4ccc(OCc5cccc(F)c5)c(Cl)c4)c3c2)o1 [lapatinib] (first compound 0.4 µM, partner dose 0.8 µM) | 97 | 93.5 | 69.9 | 53.7 | 38.2 | 70 | – | – | 105 | 136 | 176 | 105 | 32 | 91.1 | 95.1 | 30.8 |
| COc1cc([C@@H]2c3cc4c(cc3[C@@H](O[C@@H]3O[C@@H]5CO[C@@H](C)O[C@H]5[C@H](O)[C@H]3O)[C@H]3COC(=O)[C@H]23)OCO4)cc(OC)c1O [etoposide] + COC(=O)c1sccc1S(=O)(=O)Nc1ccc(Nc2ccccc2)cc1OC [GSK0660] (first compound 0.02 µM, partner dose 1 µM) | – | 91.9 | 60.9 | 69.7 | 110 | 51.4 | 78.2 | 193 | – | 147 | 146 | 82.5 | 75.8 | 99.8 | 34.9 | 61.1 |
